This note sets out measurements from paper PMC11727070.

Protein sequences, listed by entry. Tags and fused reporters are not part of them. Lines headed by an entry give the natural chain unless they say otherwise; changes in a name come on top. Chains listed by the source or under a name are the forms on record and can include a tag or linker. Residues count along the entry.
SUMO-tagged WIPI3^Δ (human WIPI3 residues 8–344 without residues 264–281) (Q5MNZ6, form named): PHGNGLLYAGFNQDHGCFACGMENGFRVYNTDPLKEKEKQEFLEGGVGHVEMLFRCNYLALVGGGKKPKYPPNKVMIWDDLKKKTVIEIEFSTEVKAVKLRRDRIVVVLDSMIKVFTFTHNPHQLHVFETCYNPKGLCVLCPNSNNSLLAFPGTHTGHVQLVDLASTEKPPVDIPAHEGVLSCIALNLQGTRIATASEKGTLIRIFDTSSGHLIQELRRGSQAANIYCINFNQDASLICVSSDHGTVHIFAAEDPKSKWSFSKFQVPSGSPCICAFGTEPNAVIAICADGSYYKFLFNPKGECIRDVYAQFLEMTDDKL

The assay deals with SUMO-tagged WIPI3^Δ (human WIPI3 residues 8–344 without residues 264–281) (human) (UniProt Q5MNZ6). Briefly: SEC; competition: a pre-formed complex incubated with an increasing molar ratio of the competitor, then SEC; fractions analysed by SDS-PAGE with Coomassie staining; both purified. On the technique in general: In gel filtration, larger molecules generally elute earlier.

Results are given in words; binding and its absence hold for the method and conditions named. Some binding calls cover weakened binding; strength is not graded here.

On to EPVVTQLHPGPIVVRDGYFSRPIGS (peptide, UniProt Q2TAZ0 1378-1402) [Trx-ATG2A(1378–1402)], for which the binding entry is “binds”.
